Consider 3 molecules from PMC1971115.

The target in assay [1] is T1, apolipoprotein L-1 (human (endogenous in plasma)) (UniProt O14791).
T1 sequence: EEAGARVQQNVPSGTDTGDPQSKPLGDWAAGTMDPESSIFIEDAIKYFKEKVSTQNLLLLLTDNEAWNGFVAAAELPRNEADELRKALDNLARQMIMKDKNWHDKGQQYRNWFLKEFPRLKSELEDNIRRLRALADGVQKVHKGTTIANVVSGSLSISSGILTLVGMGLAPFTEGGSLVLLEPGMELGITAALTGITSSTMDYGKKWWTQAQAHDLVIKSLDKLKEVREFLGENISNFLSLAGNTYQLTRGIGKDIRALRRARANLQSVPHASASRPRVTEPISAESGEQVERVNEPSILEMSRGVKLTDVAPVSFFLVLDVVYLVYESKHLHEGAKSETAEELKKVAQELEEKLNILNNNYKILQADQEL
The assay can be described thus: co-IP; one-step immunoaffinity chromatography from fresh human plasma; anti-Hpr, anti-ApoL-1 (monoclonal) or anti-ApoA-1 (polyclonal) coupled to Affigel 15, 30 min at 4 °C, washed seven times with PBSE, eluted with 100 mM glycine pH 2.0; non-reducing SDS-PAGE, western blot and LC-MS/MS. For orientation: A western blot detects proteins with antibodies after separation by electrophoresis.

Assay [2] concerns the target haptoglobin-related protein (human (endogenous in plasma)). The description is as above.
Assay [3] has the same target. The assay can be described thus: co-IP; two-step purification from human plasma: high-salt density centrifugation, then antibody affinity chromatography with anti-Hpr; non-reducing 10% SDS-PAGE, Coomassie.

These are yes or no findings as the source states them, for the method shown. In cells and extracts the contact can be indirect. Binding calls can cover weak binding; strength is not graded here.

For the molecule “haptoglobin-related protein (human (endogenous in plasma))”, the binding entry in assay [1] was “binds”. As for “haptoglobin (human (endogenous in plasma))”, the binding entry in assay [1] is reported as “binds weakly”.

B1: apolipoprotein L-1 (protein, UniProt O14791 28-398)
chain: EEAGARVQQNVPSGTDTGDPQSKPLGDWAAGTMDPESSIFIEDAIKYFKEKVSTQNLLLLLTDNEAWNGFVAAAELPRNEADELRKALDNLARQMIMKDKNWHDKGQQYRNWFLKEFPRLKSELEDNIRRLRALADGVQKVHKGTTIANVVSGSLSISSGILTLVGMGLAPFTEGGSLVLLEPGMELGITAALTGITSSTMDYGKKWWTQAQAHDLVIKSLDKLKEVREFLGENISNFLSLAGNTYQLTRGIGKDIRALRRARANLQSVPHASASRPRVTEPISAESGEQVERVNEPSILEMSRGVKLTDVAPVSFFLVLDVVYLVYESKHLHEGAKSETAEELKKVAQELEEKLNILNNNYKILQADQEL
As to B1, the binding result in assay [2] and in assay [3] was “binds” throughout.
